Results from US20260242486A1.
These are yes or no findings as the source states them, for the method shown. Some entries that bind do so weakly or less than the wild type. Tags and fused reporters may be left off the sequences shown.

Biological target: T1, CLL1 screening antigen CLL1-6×His (B918602) protein (UniProt Q5QGZ9)
T1 sequence (looked up): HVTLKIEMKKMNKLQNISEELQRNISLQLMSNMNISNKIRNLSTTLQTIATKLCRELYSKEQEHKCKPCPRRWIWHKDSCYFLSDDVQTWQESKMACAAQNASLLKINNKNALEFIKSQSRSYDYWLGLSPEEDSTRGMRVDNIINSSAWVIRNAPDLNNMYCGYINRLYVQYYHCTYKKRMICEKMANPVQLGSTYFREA
Experiment: monoclonal phage ELISA on coated CLL1-6×His (positive clone, OD450 > 0.5; value not given)

B1: single-domain antibody CLL1-VHH-1 (VHH, as phage-displayed clone in the screening ELISA) (VHH)
VHH: DVQLQESGGGLVQPGGSLRLSCAASGFTFGDYDMTWVRQAPGKGPEWVSAINSGGGSTYYADSVKGRFTISRDNAKNTLYLQMNSLKPEDTAVYYCATIDRLSTVVAGTYQPSDEYDYWGQGTQVTVSS
- binding: binds
